# The structures given here were assigned with low confidence; some may be wrong.
# The chains behind the UniProt entries cited, without tags or fusion partners. Residues count along the entry.
# UniProt P56817, 46-501 limits assumed: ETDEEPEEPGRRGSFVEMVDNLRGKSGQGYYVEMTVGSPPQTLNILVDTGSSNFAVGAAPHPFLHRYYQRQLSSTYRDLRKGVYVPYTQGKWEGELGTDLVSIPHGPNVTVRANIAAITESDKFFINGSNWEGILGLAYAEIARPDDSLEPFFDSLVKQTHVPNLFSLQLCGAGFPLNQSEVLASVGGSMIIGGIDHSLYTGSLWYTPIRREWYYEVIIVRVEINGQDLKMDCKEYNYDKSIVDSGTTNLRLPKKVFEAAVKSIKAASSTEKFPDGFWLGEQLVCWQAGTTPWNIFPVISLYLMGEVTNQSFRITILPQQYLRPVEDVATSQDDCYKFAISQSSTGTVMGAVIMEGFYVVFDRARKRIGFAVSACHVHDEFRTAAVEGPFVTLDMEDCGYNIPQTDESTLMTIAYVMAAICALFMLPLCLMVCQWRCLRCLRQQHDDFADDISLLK
# Target: human BACE1 (Homo sapiens, UniProt P56817)
# Assay: Fluorescent kinetic assay, human BACE1 (FRET peptide substrate WABC-6);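 further: fluorescence monitored at excitation 320 nm and emission 420 nm over 30 min, with the substrate cleavage rate taken as the linear slope of the signal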
# Format: biochemical
# Details: read-out: IC50 (μM) BACE 1, 25 μM substrate WABC-6, pH 4.5, room temperature
row,IC50,SMILES
1,0.11 to 1 µM,NC(=NC(=O)Cn1c(-c2ccccc2)ccc1C12CC3CC(CC(C3)C1)C2)NC1CC1
2,0.11 to 1 µM,NC(=NC(=O)Cn1c(-c2ccccc2)ccc1C12CC3CC(CC(C3)C1)C2)NCC1CCCCC1

# Source: patent US7488832B2, “Azolylacylguanidines as β-secretase inhibitors” (Wyeth, priority 2005, dated 2009)
